Measured values taken from PMC5105952.
Substitutions are numbered along the chain they refer to. Results are given in words; binding and its absence hold for the method and conditions named.

Experiments:
Test in all cases: two-hybrid; yeast three-hybrid: Tea fragments on the Gal4 activation domain, either Ver or Moi on the LexA DNA-binding domain, the other of Moi or Ver as a third stand-alone protein
[1] = target: T1, Moi G45R (Drosophila melanogaster) (UniProt B7Z0L8)
T1 sequence: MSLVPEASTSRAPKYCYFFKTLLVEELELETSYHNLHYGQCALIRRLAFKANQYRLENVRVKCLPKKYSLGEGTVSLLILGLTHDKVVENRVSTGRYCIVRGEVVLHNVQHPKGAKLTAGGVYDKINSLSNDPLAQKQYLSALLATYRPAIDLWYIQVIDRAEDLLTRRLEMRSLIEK

[2] = target: T2, Ver D96G (Drosophila melanogaster) (UniProt Q9VTZ2)
T2 sequence: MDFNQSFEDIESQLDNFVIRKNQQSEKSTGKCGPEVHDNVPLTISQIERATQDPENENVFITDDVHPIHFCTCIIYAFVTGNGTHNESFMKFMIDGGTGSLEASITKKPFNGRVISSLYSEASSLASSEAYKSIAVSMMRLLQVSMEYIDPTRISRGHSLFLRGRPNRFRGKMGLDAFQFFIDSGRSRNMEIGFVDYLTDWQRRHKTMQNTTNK

[3] = target: T3, Ver L101P (Drosophila melanogaster) (UniProt Q9VTZ2)
T3 sequence: T2 sequence with G96D, L101P

[4] = target: T4, Ver L162P (Drosophila melanogaster) (UniProt Q9VTZ2)
T4 sequence: T2 sequence with G96D, L162P

binding [1]: no binding
binding [2]: no binding
binding [3]: no binding
binding [4]: no binding
Substance: C-terminus of Tea (Drosophila melanogaster) (domain or fragment)
